Assay results taken from publication doi:10.1101/2020.01.09.899880.

The chains behind the UniProt entries cited, without tags or fusion partners. Where a name states a change or a piece, a line headed by the entry shows the natural chain unless it says otherwise.
UniProt P04406: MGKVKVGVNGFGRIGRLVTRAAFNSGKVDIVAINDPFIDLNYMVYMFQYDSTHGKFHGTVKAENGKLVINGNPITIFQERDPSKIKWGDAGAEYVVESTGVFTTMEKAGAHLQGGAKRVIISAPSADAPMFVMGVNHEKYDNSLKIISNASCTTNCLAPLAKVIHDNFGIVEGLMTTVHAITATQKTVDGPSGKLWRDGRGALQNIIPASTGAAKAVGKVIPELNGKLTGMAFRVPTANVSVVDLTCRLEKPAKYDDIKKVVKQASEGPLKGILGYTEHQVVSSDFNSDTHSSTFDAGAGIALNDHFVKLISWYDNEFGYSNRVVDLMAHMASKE
UniProt P02788: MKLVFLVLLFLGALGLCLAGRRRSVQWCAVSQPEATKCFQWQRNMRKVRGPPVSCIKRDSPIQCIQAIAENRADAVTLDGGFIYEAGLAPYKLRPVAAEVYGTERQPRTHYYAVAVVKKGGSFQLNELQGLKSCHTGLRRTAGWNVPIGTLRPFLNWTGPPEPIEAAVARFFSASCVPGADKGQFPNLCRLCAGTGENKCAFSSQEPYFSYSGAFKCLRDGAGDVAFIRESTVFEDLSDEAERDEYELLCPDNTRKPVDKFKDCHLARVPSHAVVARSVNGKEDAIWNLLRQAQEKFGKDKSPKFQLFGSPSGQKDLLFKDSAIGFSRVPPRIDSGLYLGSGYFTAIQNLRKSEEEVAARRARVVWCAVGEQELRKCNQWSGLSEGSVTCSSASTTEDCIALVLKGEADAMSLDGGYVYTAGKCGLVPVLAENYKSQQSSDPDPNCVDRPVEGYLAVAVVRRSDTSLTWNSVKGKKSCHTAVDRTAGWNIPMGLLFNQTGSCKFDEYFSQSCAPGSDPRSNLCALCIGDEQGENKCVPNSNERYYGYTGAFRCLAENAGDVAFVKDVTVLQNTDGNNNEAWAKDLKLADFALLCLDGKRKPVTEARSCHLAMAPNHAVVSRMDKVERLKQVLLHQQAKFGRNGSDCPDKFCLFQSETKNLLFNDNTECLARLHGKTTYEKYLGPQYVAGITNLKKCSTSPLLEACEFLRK

What was measured:
[1] = target: GAPDH-cMyc fusion protein (human) (UniProt P04406); assay: co-IP
[2] = target: GAPDH-cMyc fusion protein (human) (UniProt P04406); assay: co-IP; remark: listed apart in the source

- binding [1]: binds
- binding [2]: binds
Substance: lactoferrin-GFP protein (lactoferrin N domain fused to GFP) (from UniProt P02788) (domain or fragment)

Read-outs that look alike come from different tables or passages of the source. No constants are given. Whether binding was seen depends on the method and setting. In cells and extracts the contact can be indirect. A result given as binding can be weak or reduced; the word gives no strength.
